Measurements: PubChem BioAssay AID651640 (Broad Institute, 2012)
Among all 350,000 compounds or so, about 6,000 (1.7%) were called active. The inconclusive results got no clear call from the source; some entries with a clear call stand among them for comparison. Rule as the data show it: active = CPE inhibition above about 20% (passing the limit was not always enough); inconclusive = no clear call, values can overlap the other calls; tested in BHK-21 cells.

experiment: protection of cells from dengue 2 killing – plate reader, single concentration, primary screen (AID 651640); conditions: DENV2-infected cells, cytopathic effect rescue, at 9.99 µM, stronger effect = higher value;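 also: 0% = median of neutral control wells and 100% = median of positive control wells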

Row | Compound | CPE inhibition
1 | COc1ccc2c3c([nH]c2c1)[C@H](CO)N(C(=O)NC(C)C)CC31CN(C(=O)C2CCCCC2)C1 | inconclusive: 32.5%
2 | COc1cccc(CNC(=O)C[C@@H]2CC[C@@H]3[C@@H](COc4ccc(NC(C)=O)cc4C(=O)N3C)O2)c1 | inactive: -2.38%
3 | C[C@H]1CCCCO[C@@H](CN(C)C(=O)c2ccccc2)[C@@H](C)CN([C@@H](C)CO)C(=O)c2cc(NC(=O)Nc3ccc(C(F)(F)F)cc3)ccc2O1 | inactive: -9.88%
4 | Cc1ccc2nc(SCC(=O)Nc3ccc(F)cc3)nc(=O)n2c1 | inconclusive: 29.3%
5 | c1ccc(-c2nnc(N3CCN(c4ccccc4)CC3)nc2-c2ccccc2)cc1 | inconclusive: 21%
6 | c1ccc(-c2ccncc2)nc1 | active: 79%
7 | COCC(=O)N[C@@H]1CC[C@@H](CC(=O)N2CCCCC2)O[C@@H]1CO | inconclusive: 41.6%
8 | NC(=O)c1cccc(CS(=O)(=O)c2ccc(Cl)cc2)c1 | inconclusive: 21.9%
9 | CCC1([N+](=O)[O-])COC(C=Cc2ccccc2)OC1 (stereo not given) | inconclusive: 20.1%
10 | CO[C@@H]1CN(C)C(=O)c2ccc(NS(=O)(=O)c3ccc(Cl)cc3)cc2OC[C@H](C)NC[C@@H]1C | inactive: -0.077%
11 | CC(C)N(C(=O)Cn1cc(S(=O)(=O)CC(=O)NCc2ccccc2)c2ccccc21)C(C)C | inconclusive: 70.2%
12 | CC(C)C#Cc1cnc2c(c1)C(=O)N([C@@H](C)CO)C[C@@H](C)[C@@H](CN(C)C(=O)c1cccnc1)O2 | inconclusive: 24.6%
13 | Cc1nc2nc(-c3ccccc3)[nH]n2c(=O)c1C | inactive: 0.233%
14 | Cc1ccc(NC(=O)CN2CCC(NC(=O)c3cccc(F)c3)CC2)cc1C | active: 34.2%
15 | O=C(CN1CCN(C(=O)c2ccc(OCc3cn4ccccc4n3)cc2)CC1)Nc1cccc(F)c1 | inconclusive: 43.7%
16 | Cc1ccc(C)c(C(=O)CCC(=O)O)c1 | inconclusive: 27.3%
17 | COc1ccccc1-c1ccc2n(c1=O)C[C@@H]1[C@@H](CO)[C@H](C(=O)N(C)C)N(C(=O)c3cccnc3)[C@H]21 | inactive: -6.89%
18 | Cc1cccc(NC(=O)c2ccc(Cl)c(S(=O)(=O)N3CCc4ccccc43)c2)n1 | inactive: -3.51%
19 | O=c1c2cc(F)ccc2sn1-c1ccccc1 | inconclusive: 45.3%
20 | CO[C@H]1CN(C)C(=O)c2cc(NC(=O)c3ccc(Oc4ccccc4)cc3)ccc2OC[C@@H](C)NC[C@H]1C | active: 25.8%
21 | C[C@@H]1CN([C@@H](C)CO)C(=O)c2cc(NC(=O)C3CCCCC3)ccc2O[C@@H](C)CCCCO[C@H]1CN(C)Cc1ccccc1 | inactive: -2.63%
22 | C[C@@H]1CN([C@@H](C)CO)C(=O)c2cccc(NC(=O)CCCCCC(=O)Nc3ccccc3N)c2O[C@H]1CN(C)C(=O)Nc1ccc(F)cc1 | active: 48.5%
23 | Cc1ccc(NS(=O)(=O)c2c(F)cc(F)c(Cl)c2F)cc1S(=O)(=O)N1CCOCC1 | inactive: -3.01%
24 | C[C@@H]1CC=C[C@H]2[C@H]1C(=O)N(Cc1ccccc1)[C@H]2c1ccc(F)c(/C=C/c2ccccc2)c1 | inconclusive: 22.2%

Row | Compound | CPE inhibition
25 | O=C(C[C@@H]1C=C[C@H](NC(=O)c2cccnc2)[C@@H](CO)O1)NCc1ccc(Cl)c(Cl)c1 | inconclusive: 26.8%
26 | COCC(=O)Nc1ccc2c(c1)C(=O)N(C)C[C@@H](OC)[C@H](C)CN(C)[C@@H](C)CO2 | inconclusive: 21.3%
27 | O=C(CCN1CCCCC1)NCC[C@H]1CC[C@H](NC(=O)C2CCCC2)[C@H](CO)O1 | inactive: -4.59%
28 | CC[C@@H]1Cc2[nH][nH]c(=O)c2[C@@H](c2ccc(Cl)cc2)O1 | inconclusive: 63.6%
29 | C[C@@H]1CN([C@H](C)CO)C(=O)c2cc(NC(=O)c3ccccc3)ccc2O[C@@H](C)CCCCO[C@@H]1CN(C)C(=O)c1ccncc1 | inactive: 0.784%
30 | CN(C)CC#Cc1ccc([C@H]2[C@H](CO)N3CCCCN(C(=O)c4ccc5c(c4)OCO5)C[C@@H]23)cc1 | inconclusive: 63.1%
31 | O=C(CN1C2CCCC1CC(NC(=O)c1ccccc1)C2)Nc1ccccc1 (stereo not given) | inconclusive: 24.2%
32 | COc1cc(CC(=O)NCC(C)(C)N2CCOCC2)cc(OC)c1OC | inactive: 4.94%
33 | CC(C)CC(=O)Nc1ccnn1C1CCN(C(=O)c2ccc(F)cc2Cl)CC1 | inconclusive: 51.8%
34 | O=C(N/N=C/c1cn(-c2ccccc2)nc1-c1cccnc1)c1ccc(F)cc1 | inactive: 1.66%
35 | COCCNC(=O)C[C@H]1CC[C@@H]2[C@H](COC[C@@H](O)CN2S(=O)(=O)c2ccccc2C)O1 | inactive: -2.75%
36 | C[C@@H]1CN([C@@H](C)CO)C(=O)Cc2cc(NC(=O)CCC(F)(F)F)ccc2O[C@H]1CN(C)CC1CC1 | inactive: 2.49%
37 | CN1CCN(C(=O)C[C@H]2CC[C@@H]3[C@H](COC[C@@H](O)CN3C(=O)Nc3ccc4c(c3)OCO4)O2)CC1 | inactive: 4.09%
38 | CCn1c(C)c(C)c2cc(C(=O)NCCCN3CCN(C)CC3)ccc21 | inconclusive: 29.2%
39 | C[C@@H]1CN([C@@H](C)CO)C(=O)c2cc(C#CC3CCCCC3)cnc2O[C@H]1CN(C)C(=O)Nc1ccccc1 | inactive: -3.4%
40 | C[C@H]1CCCCO[C@@H](CN(C)Cc2ccc(C(=O)O)cc2)[C@@H](C)CN([C@@H](C)CO)C(=O)c2cc(NC(=O)Nc3ccc(F)cc3)ccc2O1 | inconclusive: 23.9%
41 | C[C@@H]1CCCCO[C@H](CN(C)S(=O)(=O)c2ccccc2)[C@H](C)CN([C@@H](C)CO)C(=O)c2cc(NS(=O)(=O)c3cn(C)cn3)ccc2O1 | inactive: -2.09%
42 | COc1ccc2c3c(n(C)c2c1)[C@H](CO)N(C(C)=O)CC31CCN(C(=O)c2ccccc2)CC1 | inactive: -7.21%
43 | Cc1ccc(S(=O)(=O)Nc2ccccc2N=Cc2c(F)c(F)c(F)c(F)c2F)cc1 | inconclusive: 53.8%
44 | O=S(=O)([N-]c1nc2ccccc2nc1-n1cc[n+](Cc2ccccc2)c1)c1ccccc1 | inactive: 4.52%
45 | C[C@H]1CN([C@@H](C)CO)C(=O)c2cc(NC(=O)CCC(F)(F)F)ccc2O[C@H]1CN(C)C(=O)Nc1cccc2ccccc12 | active: 26.1%
46 | FC(F)(F)C1=Nc2cccc3cccc(c23)N1 | inconclusive: 43.6%
47 | CCOC(=O)c1ccc(-c2c(-c3cc(OC)c(OC)c(OC)c3)noc2C)cc1F | inconclusive: 38.4%
48 | N#C[C@@H]1[C@H](c2ccccc2-c2ccc(F)cc2)[C@H](CO)N1c1ncc(-c2ccccc2)s1 | inactive: -7.73%

Arranged by length of the SMILES (low to high): 3 of the compounds above
Row | Compound | CPE inhibition
44 | O=S(=O)([N-]c1nc2ccccc2nc1-n1cc[n+](Cc2ccccc2)c1)c1ccccc1 | inactive: 4.52%
45 | C[C@H]1CN([C@@H](C)CO)C(=O)c2cc(NC(=O)CCC(F)(F)F)ccc2O[C@H]1CN(C)C(=O)Nc1cccc2ccccc12 | active: 26.1%
29 | C[C@@H]1CN([C@H](C)CO)C(=O)c2cc(NC(=O)c3ccccc3)ccc2O[C@@H](C)CCCCO[C@@H]1CN(C)C(=O)c1ccncc1 | inactive: 0.784%

Further results.

Row | Compound | CPE inhibition
49 | O=C(N[C@H]1CC[C@@H](CC(=O)N2CCN(c3ccccc3)CC2)O[C@H]1CO)c1ccccc1 | inconclusive: 24.6%
50 | COc1cccc(CN2CC3(CCN(Cc4ccccn4)CC3)c3c([nH]c4cc(OC)ccc34)[C@H]2CO)c1 | inactive: -10.9%
51 | CC(=O)Nc1cccc(C(=O)OCC(=O)Nc2ccc(Cl)cn2)c1 | active: 55.8%
52 | C[C@@H]1CN([C@H](C)CO)C(=O)c2cc(NS(=O)(=O)c3cccs3)ccc2O[C@@H](C)CCCCO[C@H]1CN(C)C(=O)Nc1ccc(F)cc1 | inactive: -8.2%
53 | CC(C)C[C@@H](CNCC(=O)[C@H](C)NC(=O)c1[nH]cnc1C(=O)N[C@@H](C)CN)NC(=O)c1nc[nH]c1C(=O)N[C@@H](CC(=O)O)C(=O)O | inconclusive: 21.5%
54 | COc1ccc(NC(=O)c2ccc(NC(=O)CN3CCN(c4ccccc4O)CC3)cc2)cc1 | inactive: -3.52%
55 | Cn1cc(S(=O)(=O)N2CCc3ccccc32)cc1C(=O)Nc1ccc(Cl)cc1 | inconclusive: 20.7%
56 | CC(C)NC(=O)N[C@H]1CC[C@H](CC(=O)N2CCCCC2)O[C@H]1CO | inconclusive: 30.3%
57 | O=C(Nc1cc(F)ccc1F)N1CC(=O)N2[C@H](C1)[C@@H](c1ccc(-c3cccc(F)c3)cc1)[C@@H]2CO | inactive: -6.68%
58 | CCCCOC(=O)N1CCOCCOCCOCC1 | inconclusive: 36%
59 | CC1(C)CC[C@]2(C(=O)O)CC[C@]3(C)C(=CC[C@@H]4[C@@]5(C)CC[C@H](O[C@@H]6O[C@H](C(=O)O)[C@@H](O)[C@H](O[C@@H]7OC[C@H](O)[C@H](O)[C@H]7O)[C@H]6O)C(C)(C)[C@@H]5CC[C@]43C)[C@@H]2C1 | inactive: -1.89%
60 | CSCC[C@H](NC(=O)[C@H](Cc1ccccc1)n1c(=O)[nH]c2ccccc2c1=O)C(=O)N1CCC(C(=O)O)CC1 | inconclusive: 71.2%
61 | COc1cc(S(=O)(=O)N(Cc2cccs2)CC2CCCO2)ccc1-n1cnnn1 (stereo not given) | inactive: -2.1%
62 | C[C@@H]1CN([C@H](C)CO)C(=O)c2cc(-c3ccccc3)cnc2O[C@H]1CN(C)C(=O)C1CCOCC1 | inconclusive: 62.3%
63 | COc1ccccc1-c1cn(CC[C@H]2CC[C@@H](NC(=O)NC(C)C)[C@H](CO)O2)nn1 | active: 27.6%
64 | CC(=O)c1ccc(NC(=O)C2CCCN2S(=O)(=O)c2cccs2)cc1 (stereo not given) | inconclusive: 30.6%
65 | Cc1cc(Cl)ccc1C(=O)C1CCCN(C(=O)CN2CCOC2=O)C1 (stereo not given) | inconclusive: 23.2%
66 | CCCNC(=O)N1CC2(C1)CN(C(=O)CCC)[C@@H](CO)c1[nH]c3cc(OC)ccc3c12 | active: 21.6%
67 | O=C(NC1CCCCCC1)C(=O)NC1CC1 | inconclusive: 22%
68 | CN(C)CC#Cc1ccc([C@@H]2[C@@H](CO)N3CCCCN(C(=O)Nc4ccccc4F)C[C@@H]23)cc1 | inconclusive: 68.2%
69 | CCOC(=O)c1c(NC(=O)COC(=O)c2nccnc2N)sc2c1CCC2 | inactive: 2.79%
70 | C[C@@H]1CN([C@H](C)CO)S(=O)(=O)c2ccc(/C=C/c3ccccc3)cc2O[C@@H]1CN(C)C(=O)c1ccccc1 | inconclusive: 32.5%
